Results on 40 sequences are retold here after paper PMC7862700.

The other results are listed elsewhere or left out. The source does not settle which construct or isoform was used.

For this experiment, the target named is T1, ELF2 (UniProt Q15723).
T1 sequence: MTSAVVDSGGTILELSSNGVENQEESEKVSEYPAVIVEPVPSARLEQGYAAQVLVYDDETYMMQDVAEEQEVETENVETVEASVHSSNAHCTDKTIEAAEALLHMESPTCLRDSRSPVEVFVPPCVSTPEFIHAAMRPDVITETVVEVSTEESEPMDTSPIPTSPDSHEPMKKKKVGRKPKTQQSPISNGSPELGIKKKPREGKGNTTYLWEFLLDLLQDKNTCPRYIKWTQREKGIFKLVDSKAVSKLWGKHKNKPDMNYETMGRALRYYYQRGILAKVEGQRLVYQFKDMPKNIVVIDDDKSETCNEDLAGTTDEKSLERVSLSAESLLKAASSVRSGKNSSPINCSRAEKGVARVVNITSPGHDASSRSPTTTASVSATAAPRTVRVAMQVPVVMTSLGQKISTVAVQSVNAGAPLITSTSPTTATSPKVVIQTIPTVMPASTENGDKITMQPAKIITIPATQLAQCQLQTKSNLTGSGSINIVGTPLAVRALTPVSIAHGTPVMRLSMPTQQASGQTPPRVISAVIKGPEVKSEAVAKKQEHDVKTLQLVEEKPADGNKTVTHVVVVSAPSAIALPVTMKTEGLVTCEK
Briefly: DAPPL (digital affinity profiling via proximity ligation, sequencing). The note with it: 10 mM Tris-HCl pH 7.5, 50 mM NaCl, 1 mM DTT, 4% glycerol, room temperature, 30 min; GST-TFs on glutathione beads, 16-mer random dsDNA library, 0.1% …; high values mean tight binding; double strand, one strand shown; scale: fold enrichment (6-mer frequency, TF over GST control).
The sequence CGACAT registered a binding signal of 1.23.
The same measure for ATGATG: 1.26; for TGATGA: 1.21; for CTATAG: 0.987.
In the case of ATTCAA it was 1.28; in that of CATCTC, 1.18; in that of CAAGAA, 1.03.
The same measure for GCAACT: 1.22; for TTTTCT: 1.29; for AGGGTT: 0.923.
On to AGATCA, for which the binding signal came out at 0.821.
In the case of ATTATC it was 1.33; in that of TTTTTG, 1.4.
Sequence AATACT registered a binding signal of 1.23.
In the case of TCCCTG it was 1.22; in that of GGATTT, 1.34; in that of CTCCCA, 1.33.
TGGAAT gave a binding signal of 1.24.
The sequence CCCATA gave a binding signal of 1.21.
As to GAGCTT, the binding signal was 0.982.
For CCGGCT, the binding signal came to 1.94.
Take CCCTTC: the binding signal came out at 1.58.
Consider TTAGTC, for which the binding signal is 0.756.
In the case of GCCGAT it was 1.08; in that of GTCTCC, 1.34.
The same measure for CGAAAT: 1.03; for AGAGAT: 0.883.
The same measure for AAGTTA: 1.24; for CAACGA: 1.03.
Consider GCTTAC, for which the binding signal turned out to be 1.12.
The same measure for GATTCG: 0.93; for TGTATT: 1.33.
In the case of TAACTT it was 1.51; in that of TTTGCA, 1.23; in that of TGGATA, 1.04.
In the case of GTTCTG it was 1.05; in that of CGTCCT, 1.35.
TTGGGG showed a binding signal of 1.1.
In the case of GTTAAA it was 0.998; in that of TCGTAT, 0.993.
